Entries after “also recorded” stand apart in the source; their conditions may differ. For at least one compound, name, drawing or mass did not settle the structure.
Test system: Panc02.13 cells
Assay: 3D spheroid growth assay, Panc02.13 (GFP/parental) cells
Details: Hippo-YAP pathway active

## Cc1ccc(C(=O)Nc2ccc(CN3CCN(C)CC3)c(C(F)(F)F)c2)cc1C#Cc1cnc2cccnn12 [ponatinib]
  Efficacy in inhibiting cell growth when the Hippo pathway was not inhibited: effective in preventing cancer cell growth independent of the state of Hippo-YAP signaling pathway activity; also recorded: efficacious in inhibiting cell growth
